# The supplement of paper PMC4604168 (melanoma cell lines)
# The list shows a part of the results. Repeats are few or missing, and single values can be far off.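 Cells were imaged in 1,536-well plates, and nuclei stained with an antibody against cleaved PARP were counted against all DNA-stained nuclei to give the apoptosis fraction. Screening doses were chosen to leave most cells alive, and resting and induced cleaved-PARP levels differ strongly between cell lines.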
# Legend:
# Assay in all cases: cleaved PARP positive nuclei fraction relative to DMSO control; melanoma cells; higher = more apoptosis
# Conditions in all cases: library dose: low library concentration; 72 h
# WM115 = system: WM115
# WM1716 = system: WM1716
# WM1745 = system: WM1745
# WM3526 = system: WM3526
# WM3619 = system: WM3619
# WM451Lu = system: WM451Lu
SMILES,cleaved PARP positive nuclei fraction (WM115),cleaved PARP positive nuclei fraction (WM1716),cleaved PARP positive nuclei fraction (WM1745),cleaved PARP positive nuclei fraction (WM3526),cleaved PARP positive nuclei fraction (WM3619),cleaved PARP positive nuclei fraction (WM451Lu)
"Clc1ccc(Nc2nnc(Cc3ccncc3)c3ccccc23)cc1 [vatalanib] + COc1ccc(Cl)c(Nc2nc3ccccc3nc2NS(=O)(=O)c2cccc(NC(=O)C(C)(C)N)c2)c1 [XL147] (first compound 2 µM, partner dose 0.8 µM)",107%,279%,84.2%,39.3%,106%,47.5%
"C[C@]1(c2nc3c(C(N)=O)cccc3[nH]2)CCCN1 [Veliparib] + COc1ccc2c(c1)CCC1C2CCC2(C)C(NCCCCCCN3C(=O)C=CC3=O)CCC12 [U73122] (first compound 1.4 µM, partner dose 0.4 µM)",51.3%,90.6%,125%,64.8%,92.6%,64.1%
"Cn1c(Nc2ccc(C(F)(F)F)cc2)nc2cc(Oc3ccnc(-c4ncc(C(F)(F)F)[nH]4)c3)ccc21 + OCCn1cc(-c2cnc3nnn(Cc4ccc5ncccc5c4)c3n2)cn1 [PF04217903] (first compound 0.08 µM, partner dose 1 µM)",502%,179%,116%,126%,137%,106%
"C[C@]1(c2nc3c(C(N)=O)cccc3[nH]2)CCCN1 [Veliparib] + CO[C@@H]1[C@H](N(C)C(=O)c2ccccc2)C[C@H]2O[C@]1(C)n1c3ccccc3c3c4c(c5c6ccccc6n2c5c31)C(=O)NC4 [Midostaurin] (first compound 1.4 µM, partner dose 0.08 µM)",229%,295%,108%,59.9%,95.2%,54.2%
"COCC[n+]1c2c(n(Cc3cnccn3)c1C)C(=O)c1ccccc1C2=O + O=C(CCCCCCC(=O)Nc1ccccc1)NO [vorinostat] (first compound 0.0004 µM, partner dose 0.08 µM)",54.6%,34.1%,93%,54.9%,89.5%,163%
"Cn1nnc2c(C(N)=O)ncn2c1=O [temozolomide] + CC(C)CCN1c2nc(Nc3cc(F)c(O)c(F)c3)ncc2N(C)C(=O)C1C [BID1870] (first compound 2 µM, partner dose 0.2 µM)",143%,81.6%,205%,191%,104%,88.6%
"CC1(C)NC(=O)N(c2ccc([N+](=O)[O-])c(C(F)(F)F)c2)C1=O [nilutamide] + C=CCn1c(=O)c2cnc(Nc3ccc(N4CCN(C)CC4)cc3)nc2n1-c1cccc(C(C)(C)O)n1 [MK1775] (first compound 1 µM, partner dose 0.02 µM)",197%,128%,108%,52.8%,104%,103%
"O=C(Nc1cccc(Cl)c1)Nc1ncc(CCNc2ncnc3ccsc23)s1 + O=S(=O)(c1ccccc1)N(CC(F)(F)F)c1ccc(C(O)(C(F)(F)F)C(F)(F)F)cc1 [T0901317] (first compound 0.0008 µM, partner dose 1.4 µM)",160%,60.8%,113%,76.5%,88.8%,145%
"NC(=O)Nc1cc(-c2cccc(F)c2)sc1C(=O)N[C@H]1CCCNC1 + O=C(O)c1ccc(-c2c[nH]c3ncc(-c4ccccc4)cc23)cc1C1CCCC1 [GSK650394] (first compound 0.02 µM, partner dose 0.16 µM)",103%,213%,110%,59.2%,219%,69.4%
"Cc1cc(N2CCOCC2)cc2[nH]c(-c3c(NC[C@@H](O)c4cccc(Cl)c4)cc[nH]c3=O)nc12 + CCN(CC)CCCCNc1ncc2cc(-c3cc(OC)cc(OC)c3)c(NC(=O)NC(C)(C)C)nc2n1 [PD173074] (first compound 0.2 µM, partner dose 0.1 µM)",91.3%,62.8%,125%,48.5%,97.5%,132%
"Cc1ccc(NC(=O)c2cccc(N(C)C)c2)cc1NC(=O)c1ccc(O)cc1 + CCN(CC)CCCCNc1ncc2cc(-c3cc(OC)cc(OC)c3)c(NC(=O)NC(C)(C)C)nc2n1 [PD173074] (first compound 2 µM, partner dose 0.1 µM)",144%,127%,111%,64.5%,77.8%,85.9%
"NC(=O)Nc1cc(-c2cccc(F)c2)sc1C(=O)N[C@H]1CCCNC1 + O=C(Nc1ccccc1)c1cc([N+](=O)[O-])ccc1Cl [GW9662] (first compound 0.02 µM, partner dose 2 µM)",154%,294%,91.1%,75.9%,107%,171%
"NC(=O)Nc1cc(-c2cccc(F)c2)sc1C(=O)N[C@H]1CCCNC1 + OCCn1cc(-c2cnc3nnn(Cc4ccc5ncccc5c4)c3n2)cn1 [PF04217903] (first compound 0.02 µM, partner dose 1 µM)",84.6%,148%,102%,74.7%,258%,61.1%
"CC1(C)NC(=O)N(c2ccc([N+](=O)[O-])c(C(F)(F)F)c2)C1=O [nilutamide] + O=C1NC(=O)/C(=C/c2ccc(-c3ccc(F)cc3O)o2)S1 [AS252424] (first compound 1 µM, partner dose 1 µM)",142%,51%,109%,60.1%,83.9%,96%
"CC(C)(C)c1cnc(CSc2cnc(NC(=O)C3CCNCC3)s2)o1 + c1cc(-c2cnn3cc(-c4ccc(OCCN5CCCCC5)cc4)cnc23)ccn1 [Dorsomorphin] (first compound 0.01 µM, partner dose 0.4 µM)",157%,167%,133%,136%,75.3%,165%
"OCc1c[nH]c2ccccc12 [Indole-3-carbinol] + NCC(=O)Nc1ccc(-n2nc(C(F)(F)F)cc2-c2ccc3c(ccc4ccccc43)c2)cc1 [OSU03012] (first compound 0.8 µM, partner dose 1 µM)",91.2%,88%,82.1%,86.4%,94.9%,44.7%
"COc1cc(Nc2ncc(F)c(Nc3ccc4c(n3)NC(=O)C(C)(C)O4)n2)cc(OC)c1OC [Tamatinib] + O=C(Nc1cccc(Cl)c1)Nc1ncc(CCNc2ncnc3ccsc23)s1 [SNS314] (first compound 0.4 µM, partner dose 0.0008 µM)",132%,58.2%,156%,68.7%,109%,60.9%
"CC(C)(C)c1cnc(CSc2cnc(NC(=O)C3CCNCC3)s2)o1 + COc1cc(N2CCC(N3CCN(C)CC3)CC2)ccc1Nc1ncc(Cl)c(Nc2ccccc2S(=O)(=O)C(C)C)n1 [NVP-TAE684] (first compound 0.01 µM, partner dose 0.08 µM)",99.4%,93%,126%,61.3%,252%,121%
"Clc1ccc(Nc2nnc(Cc3ccncc3)c3ccccc23)cc1 [vatalanib] + COc1cc2c(Oc3ccc4[nH]c(C)cc4c3F)ncnc2cc1OCCCN1CCCC1 [cediranib] (first compound 2 µM, partner dose 0.4 µM)",60.5%,169%,115%,173%,122%,104%
"O=C(CCCCCCC(=O)Nc1ccccc1)NO [vorinostat] + CC(C)(C)c1cnc(CSc2cnc(NC(=O)C3CCNCC3)s2)o1 [SNS-032] (first compound 0.08 µM, partner dose 0.01 µM)",72.2%,113%,73.2%,42.3%,82.7%,53.9%
"COc1cc(Nc2ncc(F)c(Nc3ccc4c(n3)NC(=O)C(C)(C)O4)n2)cc(OC)c1OC [Tamatinib] + Cc1cc(N2CCOCC2)cc2[nH]c(-c3c(NC[C@@H](O)c4cccc(Cl)c4)cc[nH]c3=O)nc12 [BMS536924] (first compound 0.4 µM, partner dose 0.2 µM)",291%,86.5%,248%,145%,125%,165%
"Cc1cc(N2CCOCC2)cc2[nH]c(-c3c(NC[C@@H](O)c4cccc(Cl)c4)cc[nH]c3=O)nc12 + Oc1nc(-c2ccc(C(F)(F)F)cc2)nc2c1CSCC2 [XAV939] (first compound 0.2 µM, partner dose 2 µM)",62.9%,169%,160%,75%,200%,80.8%
"COCC[n+]1c2c(n(Cc3cnccn3)c1C)C(=O)c1ccccc1C2=O + Cn1nnc2c(C(N)=O)ncn2c1=O [temozolomide] (first compound 0.0004 µM, partner dose 2 µM)",165%,41.9%,75.2%,102%,85.6%,147%
"Cc1ccc(NC(=O)c2cccc(N(C)C)c2)cc1NC(=O)c1ccc(O)cc1 + COc1ccc(-c2ccc3c(N4CCOCC4)nc(N4C[C@@H](C)O[C@@H](C)C4)nc3n2)cc1CO [KU0063794] (first compound 2 µM, partner dose 0.02 µM)",103%,236%,110%,81.8%,87.3%,185%
"Cn1c(Nc2ccc(C(F)(F)F)cc2)nc2cc(Oc3ccnc(-c4ncc(C(F)(F)F)[nH]4)c3)ccc21 + Cc1cc(N2CCOCC2)cc2[nH]c(-c3c(NC[C@@H](O)c4cccc(Cl)c4)cc[nH]c3=O)nc12 [BMS536924] (first compound 0.08 µM, partner dose 0.2 µM)",333%,169%,156%,407%,140%,106%
"C=CCNC1=C2C[C@@H](C)C[C@H](OC)[C@H](O)[C@@H](C)/C=C(\C)[C@H](OC(N)=O)[C@@H](OC)/C=C\C=C(/C)C(=O)NC(=CC1=O)C2=O [Tanespimycin] + CC(C)(C)c1cnc(CSc2cnc(NC(=O)C3CCNCC3)s2)o1 [SNS-032] (first compound 0.002 µM, partner dose 0.01 µM)",85%,94.6%,72.1%,172%,82.8%,72.4%

# Whole records, quoted from the list. Order of values: cleaved PARP positive nuclei fraction (WM115)	cleaved PARP positive nuclei fraction (WM1716)	cleaved PARP positive nuclei fraction (WM1745)	cleaved PARP positive nuclei fraction (WM3526)	cleaved PARP positive nuclei fraction (WM3619)	cleaved PARP positive nuclei fraction (WM451Lu)
# NC(=O)Nc1cc(-c2cccc(F)c2)sc1C(=O)N[C@H]1CCCNC1 + OCCn1cc(-c2cnc3nnn(Cc4ccc5ncccc5c4)c3n2)cn1 [PF04217903] (first compound 0.02 µM, partner dose 1 µM) is entered as 84.6%	148%	102%	74.7%	258%	61.1%
# COCC[n+]1c2c(n(Cc3cnccn3)c1C)C(=O)c1ccccc1C2=O + Cn1nnc2c(C(N)=O)ncn2c1=O [temozolomide] (first compound 0.0004 µM, partner dose 2 µM) is entered as 165%	41.9%	75.2%	102%	85.6%	147%
